Laboratory results reported in article doi:10.1101/720482.
Read-outs that look alike come from different tables or passages of the source. No constants are given. Whether binding was seen depends on the method and setting. Binding seen in cells or lysates may run through a third protein. A result given as binding can be weak or reduced; the word gives no strength. For some of these results: Tags and fused reporters may be left off the sequences shown. Blank lines part the entries; values can stand above or below the molecule they belong to.

Chains of the proteins cited; added tags and fusions are not shown. Lines headed by an entry give the natural chain unless they say otherwise; changes in a name come on top. Residues count along the entry.
UniProt Q9M306: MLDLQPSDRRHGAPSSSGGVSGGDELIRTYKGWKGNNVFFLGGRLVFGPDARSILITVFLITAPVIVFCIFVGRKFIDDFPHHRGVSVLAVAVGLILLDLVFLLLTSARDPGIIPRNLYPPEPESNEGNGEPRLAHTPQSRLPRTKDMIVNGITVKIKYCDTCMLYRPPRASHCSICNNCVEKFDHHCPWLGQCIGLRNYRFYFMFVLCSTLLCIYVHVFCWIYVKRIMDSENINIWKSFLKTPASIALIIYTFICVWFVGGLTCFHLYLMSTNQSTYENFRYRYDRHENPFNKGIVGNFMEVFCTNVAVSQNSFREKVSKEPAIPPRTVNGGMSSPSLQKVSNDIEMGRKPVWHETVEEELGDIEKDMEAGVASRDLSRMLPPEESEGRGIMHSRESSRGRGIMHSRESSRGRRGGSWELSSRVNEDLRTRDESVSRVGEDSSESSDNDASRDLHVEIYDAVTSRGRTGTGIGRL
UniProt Q8VYS8: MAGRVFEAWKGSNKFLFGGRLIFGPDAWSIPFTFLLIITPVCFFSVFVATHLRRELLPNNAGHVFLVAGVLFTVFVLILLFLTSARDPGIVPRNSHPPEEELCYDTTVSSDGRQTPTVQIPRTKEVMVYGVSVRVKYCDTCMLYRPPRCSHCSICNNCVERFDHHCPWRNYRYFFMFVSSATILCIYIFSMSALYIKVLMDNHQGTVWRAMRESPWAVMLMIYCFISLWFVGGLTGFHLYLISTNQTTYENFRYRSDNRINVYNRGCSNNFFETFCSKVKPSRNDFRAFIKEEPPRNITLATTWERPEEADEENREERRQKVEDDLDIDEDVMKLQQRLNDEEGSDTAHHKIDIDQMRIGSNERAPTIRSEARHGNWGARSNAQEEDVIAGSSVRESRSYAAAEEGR
UniProt Q9FL28, residues 24-1173: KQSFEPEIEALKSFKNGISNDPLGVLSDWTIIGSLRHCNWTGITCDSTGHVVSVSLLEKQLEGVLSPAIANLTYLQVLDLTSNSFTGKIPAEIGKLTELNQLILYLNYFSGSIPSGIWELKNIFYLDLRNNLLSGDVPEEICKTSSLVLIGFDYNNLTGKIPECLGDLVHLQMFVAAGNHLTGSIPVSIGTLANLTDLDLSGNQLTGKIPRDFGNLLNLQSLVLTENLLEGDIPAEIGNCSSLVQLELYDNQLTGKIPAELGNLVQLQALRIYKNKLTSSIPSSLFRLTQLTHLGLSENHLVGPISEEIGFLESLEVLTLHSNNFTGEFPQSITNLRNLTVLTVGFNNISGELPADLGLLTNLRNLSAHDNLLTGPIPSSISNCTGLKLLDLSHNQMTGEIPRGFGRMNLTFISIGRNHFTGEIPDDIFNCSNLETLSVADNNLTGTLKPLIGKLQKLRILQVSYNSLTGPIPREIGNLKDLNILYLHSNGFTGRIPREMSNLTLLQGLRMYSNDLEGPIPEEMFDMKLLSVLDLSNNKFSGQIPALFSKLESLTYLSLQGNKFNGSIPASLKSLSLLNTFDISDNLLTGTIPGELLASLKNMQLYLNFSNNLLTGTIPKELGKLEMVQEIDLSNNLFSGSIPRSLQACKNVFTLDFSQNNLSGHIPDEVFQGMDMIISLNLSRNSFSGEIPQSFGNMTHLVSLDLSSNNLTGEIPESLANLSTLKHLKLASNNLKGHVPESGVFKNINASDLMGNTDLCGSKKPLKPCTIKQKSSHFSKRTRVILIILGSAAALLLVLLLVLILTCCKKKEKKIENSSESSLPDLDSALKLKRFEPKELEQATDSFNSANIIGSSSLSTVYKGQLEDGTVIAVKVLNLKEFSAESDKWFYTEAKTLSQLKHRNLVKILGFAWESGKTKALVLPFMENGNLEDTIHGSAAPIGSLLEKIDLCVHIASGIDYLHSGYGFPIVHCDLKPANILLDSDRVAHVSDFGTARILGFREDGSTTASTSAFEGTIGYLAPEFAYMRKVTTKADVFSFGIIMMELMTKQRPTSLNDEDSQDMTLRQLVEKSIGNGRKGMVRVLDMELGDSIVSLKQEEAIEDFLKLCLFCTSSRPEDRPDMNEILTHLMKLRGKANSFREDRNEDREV

Experiments:
[1] = target: PAT5-HA (NP::ATPAT5/Atpat5) (Arabidopsis thaliana) (UniProt Q9M306); assay: co-IP
[2] = target: PAT9-HA (NP::ATPAT9/Atpat9) (Arabidopsis thaliana) (UniProt Q8VYS8); assay: co-IP
[3] = target: PAT5-HA (NP::ATPAT5/Atpat5) (Arabidopsis thaliana) (UniProt Q9M306); assay: co-IP; remark: listed apart in the source
[4] = target: PAT9-HA (NP::ATPAT9/Atpat9) (Arabidopsis thaliana) (UniProt Q8VYS8); assay: co-IP; remark: listed apart in the source
[5] = target: T1, FLOT1 (split-luciferase fusion, LCI) (Arabidopsis thaliana) (UniProt Q501E6); assay: split reporter
T1 sequence: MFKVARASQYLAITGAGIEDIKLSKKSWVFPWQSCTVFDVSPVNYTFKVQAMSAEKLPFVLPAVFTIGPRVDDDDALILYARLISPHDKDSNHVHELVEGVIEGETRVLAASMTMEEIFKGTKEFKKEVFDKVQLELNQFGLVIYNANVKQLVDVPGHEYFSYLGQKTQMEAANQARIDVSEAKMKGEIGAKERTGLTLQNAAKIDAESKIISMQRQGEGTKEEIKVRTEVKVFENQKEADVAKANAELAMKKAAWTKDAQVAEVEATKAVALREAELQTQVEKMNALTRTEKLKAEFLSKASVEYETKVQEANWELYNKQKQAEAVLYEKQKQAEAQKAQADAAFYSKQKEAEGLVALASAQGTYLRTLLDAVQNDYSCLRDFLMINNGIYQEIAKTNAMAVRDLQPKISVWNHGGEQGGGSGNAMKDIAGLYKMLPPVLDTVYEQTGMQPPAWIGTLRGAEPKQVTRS

[6] = target: FLS2 (split-luciferase fusion, LCI) (Arabidopsis thaliana) (UniProt Q9FL28); assay: split reporter
[7] = target: T2, P2K1 (split-luciferase fusion, LCI) (Arabidopsis thaliana) (UniProt Q9LSR8); assay: split reporter
T2 sequence: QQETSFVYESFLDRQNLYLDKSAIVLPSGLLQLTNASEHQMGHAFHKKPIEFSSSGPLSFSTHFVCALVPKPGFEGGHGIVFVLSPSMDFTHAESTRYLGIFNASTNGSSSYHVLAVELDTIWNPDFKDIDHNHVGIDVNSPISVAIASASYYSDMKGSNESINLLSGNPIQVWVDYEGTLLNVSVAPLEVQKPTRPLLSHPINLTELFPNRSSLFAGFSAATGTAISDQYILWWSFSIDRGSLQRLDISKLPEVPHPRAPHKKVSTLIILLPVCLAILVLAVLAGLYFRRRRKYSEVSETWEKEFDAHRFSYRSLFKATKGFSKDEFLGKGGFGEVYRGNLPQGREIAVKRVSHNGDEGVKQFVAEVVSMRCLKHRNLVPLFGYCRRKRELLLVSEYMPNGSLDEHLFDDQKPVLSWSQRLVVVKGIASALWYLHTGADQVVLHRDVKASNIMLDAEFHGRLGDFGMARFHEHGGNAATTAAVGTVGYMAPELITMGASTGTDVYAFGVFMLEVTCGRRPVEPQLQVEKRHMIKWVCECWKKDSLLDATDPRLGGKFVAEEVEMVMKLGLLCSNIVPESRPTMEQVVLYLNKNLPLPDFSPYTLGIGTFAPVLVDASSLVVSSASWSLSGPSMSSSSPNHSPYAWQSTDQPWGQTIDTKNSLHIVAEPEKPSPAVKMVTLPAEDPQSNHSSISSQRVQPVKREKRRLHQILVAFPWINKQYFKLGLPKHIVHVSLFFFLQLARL

[8] = target: PAT9 (split-luciferase fusion, LCI) (Arabidopsis thaliana) (UniProt Q8VYS8); assay: split reporter
[9] = target: T3, kinase dead version CERK1 (D441A) (split-luciferase fusion, LCI) (Arabidopsis thaliana) (UniProt A8R7E6); assay: split reporter
T3 sequence: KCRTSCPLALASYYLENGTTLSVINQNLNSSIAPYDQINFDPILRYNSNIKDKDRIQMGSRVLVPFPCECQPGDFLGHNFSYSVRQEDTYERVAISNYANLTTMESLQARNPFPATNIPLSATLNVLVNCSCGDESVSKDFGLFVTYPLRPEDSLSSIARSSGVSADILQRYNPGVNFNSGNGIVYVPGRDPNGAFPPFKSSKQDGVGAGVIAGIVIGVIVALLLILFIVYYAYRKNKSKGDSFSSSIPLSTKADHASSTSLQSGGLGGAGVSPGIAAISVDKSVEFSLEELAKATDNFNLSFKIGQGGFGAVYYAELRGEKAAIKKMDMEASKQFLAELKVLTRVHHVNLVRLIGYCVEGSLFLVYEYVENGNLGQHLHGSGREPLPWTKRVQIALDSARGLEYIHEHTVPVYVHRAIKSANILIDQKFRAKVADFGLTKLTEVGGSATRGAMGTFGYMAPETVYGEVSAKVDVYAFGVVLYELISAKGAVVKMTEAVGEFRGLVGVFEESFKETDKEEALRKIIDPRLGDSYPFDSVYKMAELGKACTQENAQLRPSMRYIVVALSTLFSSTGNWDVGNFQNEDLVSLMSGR

[10] = target: T4, CERK1-YFP^N (Arabidopsis thaliana) (UniProt A8R7E6); assay: split reporter
T4 sequence: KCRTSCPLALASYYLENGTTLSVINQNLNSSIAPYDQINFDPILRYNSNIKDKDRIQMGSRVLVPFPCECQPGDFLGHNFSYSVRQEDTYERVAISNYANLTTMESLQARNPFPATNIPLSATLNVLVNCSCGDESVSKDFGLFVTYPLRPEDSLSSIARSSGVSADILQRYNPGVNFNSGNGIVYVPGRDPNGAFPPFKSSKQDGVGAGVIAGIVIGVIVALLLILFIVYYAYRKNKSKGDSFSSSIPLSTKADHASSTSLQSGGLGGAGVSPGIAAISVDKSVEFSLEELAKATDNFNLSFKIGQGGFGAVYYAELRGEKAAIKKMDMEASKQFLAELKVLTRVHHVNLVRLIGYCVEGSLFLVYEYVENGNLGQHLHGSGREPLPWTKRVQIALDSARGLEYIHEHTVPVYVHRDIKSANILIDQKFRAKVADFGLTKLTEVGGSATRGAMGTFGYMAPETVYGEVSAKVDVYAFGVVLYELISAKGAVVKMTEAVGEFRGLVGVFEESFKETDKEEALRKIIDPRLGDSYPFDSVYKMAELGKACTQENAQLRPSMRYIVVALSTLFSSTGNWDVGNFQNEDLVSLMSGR

[11] = target: FLS2-YFP^N (Arabidopsis thaliana) (UniProt Q9FL28); assay: split reporter
[12] = target: T5, P2K1-YFP^N (Arabidopsis thaliana) (UniProt Q9LSR8); assay: split reporter
T5 sequence: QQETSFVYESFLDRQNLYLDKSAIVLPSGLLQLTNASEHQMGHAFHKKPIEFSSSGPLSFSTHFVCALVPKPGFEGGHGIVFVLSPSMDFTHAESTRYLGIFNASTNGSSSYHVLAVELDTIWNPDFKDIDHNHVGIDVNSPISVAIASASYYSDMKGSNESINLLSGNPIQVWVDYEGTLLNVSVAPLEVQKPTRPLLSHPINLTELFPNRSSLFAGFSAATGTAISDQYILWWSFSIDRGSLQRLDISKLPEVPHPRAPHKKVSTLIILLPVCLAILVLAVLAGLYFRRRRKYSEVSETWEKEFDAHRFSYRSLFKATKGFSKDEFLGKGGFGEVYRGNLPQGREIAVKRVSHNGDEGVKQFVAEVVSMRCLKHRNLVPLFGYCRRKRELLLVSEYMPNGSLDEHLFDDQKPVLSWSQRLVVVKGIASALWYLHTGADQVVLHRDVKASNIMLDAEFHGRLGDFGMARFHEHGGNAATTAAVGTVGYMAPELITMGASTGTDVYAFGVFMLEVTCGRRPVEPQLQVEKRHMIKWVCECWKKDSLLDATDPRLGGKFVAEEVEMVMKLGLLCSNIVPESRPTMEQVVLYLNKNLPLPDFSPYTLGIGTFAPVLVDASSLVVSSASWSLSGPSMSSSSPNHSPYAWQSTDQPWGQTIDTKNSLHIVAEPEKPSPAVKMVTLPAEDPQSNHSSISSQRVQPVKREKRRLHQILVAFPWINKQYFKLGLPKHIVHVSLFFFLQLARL

[13] = target: PAT9-YFP^C (Arabidopsis thaliana) (UniProt Q8VYS8); assay: split reporter
[14] = target: T6, P2K1-HA (Arabidopsis thaliana) (UniProt Q9LSR8); assay: co-IP
T6 sequence: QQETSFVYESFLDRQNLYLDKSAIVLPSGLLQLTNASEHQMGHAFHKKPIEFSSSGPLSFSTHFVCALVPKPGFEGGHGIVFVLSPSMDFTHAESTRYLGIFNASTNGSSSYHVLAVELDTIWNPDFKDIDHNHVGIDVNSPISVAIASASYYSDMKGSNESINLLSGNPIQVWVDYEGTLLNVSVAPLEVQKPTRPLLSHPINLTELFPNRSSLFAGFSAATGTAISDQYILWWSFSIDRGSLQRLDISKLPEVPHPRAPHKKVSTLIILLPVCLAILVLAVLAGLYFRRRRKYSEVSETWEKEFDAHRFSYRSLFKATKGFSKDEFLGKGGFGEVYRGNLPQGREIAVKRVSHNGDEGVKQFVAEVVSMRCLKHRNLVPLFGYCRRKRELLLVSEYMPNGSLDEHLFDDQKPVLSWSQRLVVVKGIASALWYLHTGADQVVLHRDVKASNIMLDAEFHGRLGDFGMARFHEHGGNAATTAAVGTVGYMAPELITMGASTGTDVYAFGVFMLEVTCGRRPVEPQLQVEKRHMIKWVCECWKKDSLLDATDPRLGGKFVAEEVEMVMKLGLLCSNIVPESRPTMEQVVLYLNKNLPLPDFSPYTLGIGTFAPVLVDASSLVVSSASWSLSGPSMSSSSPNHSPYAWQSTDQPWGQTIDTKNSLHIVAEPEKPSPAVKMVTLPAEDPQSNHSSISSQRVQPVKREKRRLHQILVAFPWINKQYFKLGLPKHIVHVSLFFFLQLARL

[15] = target: T6, P2K1-HA (Arabidopsis thaliana); assay: co-IP; remark: listed apart in the source
[16] = target: PAT5-HA (NP::ATPAT5/Atpat5) (Arabidopsis thaliana) (UniProt Q9M306); assay: co-IP; remark: listed apart in the source
[17] = target: PAT9-HA (NP::ATPAT9/Atpat9) (Arabidopsis thaliana) (UniProt Q8VYS8); assay: co-IP; remark: listed apart in the source

binding [1]: binds weakly
binding [2]: binds weakly
binding [3]: binds
binding [4]: binds
Molecule: endogenous FLS2 (from UniProt Q9FL28 24-1173) (receptor)

Molecule: PAT5 (split-luciferase fusion, LCI) (from UniProt Q9M306) (enzyme)
binding [5]: binds
binding [6]: binds
binding [7]: binds
binding [8]: binds
binding [9]: binds

binding [10]: binds
binding [11]: binds
binding [12]: binds
binding [13]: binds
Molecule: PAT5-YFP^C (from UniProt Q9M306) (enzyme)

binding [14]: binds weakly
binding [15]: binds
Molecule: PAT5-Myc (from UniProt Q9M306) (enzyme)

binding [14]: binds weakly
binding [15]: binds
Molecule: PAT9-Myc (from UniProt Q8VYS8) (enzyme)

Molecule: PAT9 (split-luciferase fusion, LCI) (from UniProt Q8VYS8) (enzyme)
binding [5]: binds
binding [6]: binds
binding [7]: binds
binding [9]: binds

binding [10]: binds
binding [11]: binds
binding [12]: binds
Molecule: PAT9-YFP^C (from UniProt Q8VYS8) (enzyme)

binding [1]: binds weakly
binding [2]: binds weakly
binding [16]: binds
binding [17]: binds
B1: endogenous CERK1 (receptor, UniProt A8R7E6 24-617)
chain: KCRTSCPLALASYYLENGTTLSVINQNLNSSIAPYDQINFDPILRYNSNIKDKDRIQMGSRVLVPFPCECQPGDFLGHNFSYSVRQEDTYERVAISNYANLTTMESLQARNPFPATNIPLSATLNVLVNCSCGDESVSKDFGLFVTYPLRPEDSLSSIARSSGVSADILQRYNPGVNFNSGNGIVYVPGRDPNGAFPPFKSSKQDGVGAGVIAGIVIGVIVALLLILFIVYYAYRKNKSKGDSFSSSIPLSTKADHASSTSLQSGGLGGAGVSPGIAAISVDKSVEFSLEELAKATDNFNLSFKIGQGGFGAVYYAELRGEKAAIKKMDMEASKQFLAELKVLTRVHHVNLVRLIGYCVEGSLFLVYEYVENGNLGQHLHGSGREPLPWTKRVQIALDSARGLEYIHEHTVPVYVHRDIKSANILIDQKFRAKVADFGLTKLTEVGGSATRGAMGTFGYMAPETVYGEVSAKVDVYAFGVVLYELISAKGAVVKMTEAVGEFRGLVGVFEESFKETDKEEALRKIIDPRLGDSYPFDSVYKMAELGKACTQENAQLRPSMRYIVVALSTLFSSTGNWDVGNFQNEDLVSLMSGR
